Test results published in US9079854B2 (priority 2007, dated 2015).
Some entries share one result that the patent states for a list of compounds.

Sequences of proteins named here, by UniProt entry; tags and fusion partners are left off.
UniProt P21554, whole entry: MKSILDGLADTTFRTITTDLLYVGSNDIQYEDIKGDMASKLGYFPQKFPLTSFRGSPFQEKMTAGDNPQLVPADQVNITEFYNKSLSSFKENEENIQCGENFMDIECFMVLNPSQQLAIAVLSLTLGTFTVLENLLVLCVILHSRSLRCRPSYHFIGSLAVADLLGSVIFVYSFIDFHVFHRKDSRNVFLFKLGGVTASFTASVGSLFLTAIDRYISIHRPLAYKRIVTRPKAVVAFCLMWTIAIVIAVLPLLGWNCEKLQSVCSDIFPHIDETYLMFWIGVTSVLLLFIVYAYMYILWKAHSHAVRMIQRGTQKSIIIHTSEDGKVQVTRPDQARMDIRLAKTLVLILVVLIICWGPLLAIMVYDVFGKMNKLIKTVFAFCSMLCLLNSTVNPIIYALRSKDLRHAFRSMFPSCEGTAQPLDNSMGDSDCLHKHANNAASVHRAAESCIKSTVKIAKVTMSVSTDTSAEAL

Target: T1, human CB1 (hCB1) receptor (Homo sapiens, UniProt P21554)
T1 construct: expressed in transfected cells; host or cells: CHO (Chinese hamster ovary) cells, membranes
Experiment: CB1 binding assay, competitive binding of [3H]CP 55940
Details: 10 μM; for either hCB1 or hCB2 receptors
Method: Cell membrane homogenates (25 μg protein) are incubated for 120 min at 37° C. with 0.5 nM [^3H]CP 55940 (the reference standard [Rinaldi-Carmona, 1996 #1320]) in the absence or presence of the test compound in a buffer containing 50 mM Tris HCl (pH 7.4), 5 mM MgCl2, 2.5 mM EDTA, and 0.3% bovine serum albumin (BSA). […]
[…] [^3H]-CP55940 at a concentration of 0.5 nM and [^3H]-WIN55212 at a concentration of 0.8 nM were used as radioligands for hCB1 and hCB2 assays, respectively. The results are expressed as a percent inhibition of control specific binding. Compounds which displaced the radioligand by more than 50% for either hCB1 or hCB2 receptors were arbitrary chosen for functional activity determination.

Structure (SMILES) | displacement of the radioligand in the binding assay
O=C(N/N=C1\C(=O)N(CCC2CCCCC2)c2ccccc21)c1ccccc1 [Example 5, Benzoic acid [1-(2-cyclohexyl-ethyl)-2-oxo-1,2-dihydro-indol-3-ylidene]-hydrazide] | more than 50%
CCCCCCN1C(=O)/C(=N\NC(=O)c2ccccc2)c2ccccc21 [Example 6, Benzoic acid [1-n-hexyl-2-oxo-1,2-dihydro-indol-3-ylidene]-hydrazide] | more than 50%
CCCCCCN1C(=O)/C(=N\NC(=O)Cc2ccccc2)c2ccccc21 [Example 7, Phenylacetic acid [1-n-hexyl-2-oxo-1,2-dihydro-indol-3-ylidene]-hydrazide] | more than 50%
O=C(Cc1ccccc1)N/N=C1\C(=O)N(CCC2CCCCC2)c2ccccc21 [Example 10, N′-[1-(2-cyclohexylethyl)-2-oxo-1,2-dihydro-3H-indol-3-ylidene]-2-phenylacetohydrazide] | more than 50%
